Measurements as given in publication PMC8274477.
No constants are given. Whether binding was seen depends on the method and setting. Some binding calls cover weakened binding; strength is not graded here.

By UniProt entry, the sequences of proteins in these tests, tags left out.
UniProt Q6NXT4: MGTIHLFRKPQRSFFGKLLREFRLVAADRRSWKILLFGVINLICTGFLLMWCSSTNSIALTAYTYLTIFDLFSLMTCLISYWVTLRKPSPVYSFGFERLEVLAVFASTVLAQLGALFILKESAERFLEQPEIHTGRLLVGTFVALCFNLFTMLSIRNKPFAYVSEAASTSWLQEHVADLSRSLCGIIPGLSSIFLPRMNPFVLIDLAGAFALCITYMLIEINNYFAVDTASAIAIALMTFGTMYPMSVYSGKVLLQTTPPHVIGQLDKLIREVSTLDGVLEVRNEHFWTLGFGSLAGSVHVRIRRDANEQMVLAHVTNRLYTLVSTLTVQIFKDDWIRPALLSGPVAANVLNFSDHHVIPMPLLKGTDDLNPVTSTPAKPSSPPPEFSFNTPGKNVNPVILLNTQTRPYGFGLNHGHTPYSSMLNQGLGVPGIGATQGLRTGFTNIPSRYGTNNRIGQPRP

Key:
Assay in all cases: peptide or protein array; HuProt human proteome microarray; 5 ug/5 ml biotin-labelled LUBAC or OTULIN in solution, 1 h at room temperature; Cy5-streptavidin, scanned at 635 nm; BSA as negative control; hits: Z-score >= 3 and I_(Mean_Ratio) >= 1.4; both purified
[1] = target: TAF9B (human) (UniProt Q9HBM6)
[2] = target: T1, BPHL (human) (UniProt Q86WA6)
T1 sequence: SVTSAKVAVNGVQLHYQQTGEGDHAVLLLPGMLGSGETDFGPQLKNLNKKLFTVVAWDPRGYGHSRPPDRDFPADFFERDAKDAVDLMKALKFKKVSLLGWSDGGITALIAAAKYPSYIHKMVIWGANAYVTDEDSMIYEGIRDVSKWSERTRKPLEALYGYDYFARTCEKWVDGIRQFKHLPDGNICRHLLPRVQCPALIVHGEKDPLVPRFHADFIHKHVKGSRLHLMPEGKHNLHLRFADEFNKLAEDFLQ

[3] = target: SLC30A6 (human) (UniProt Q6NXT4)
[4] = target: T2, ADAT3 (human) (UniProt Q96EY9)
T2 sequence: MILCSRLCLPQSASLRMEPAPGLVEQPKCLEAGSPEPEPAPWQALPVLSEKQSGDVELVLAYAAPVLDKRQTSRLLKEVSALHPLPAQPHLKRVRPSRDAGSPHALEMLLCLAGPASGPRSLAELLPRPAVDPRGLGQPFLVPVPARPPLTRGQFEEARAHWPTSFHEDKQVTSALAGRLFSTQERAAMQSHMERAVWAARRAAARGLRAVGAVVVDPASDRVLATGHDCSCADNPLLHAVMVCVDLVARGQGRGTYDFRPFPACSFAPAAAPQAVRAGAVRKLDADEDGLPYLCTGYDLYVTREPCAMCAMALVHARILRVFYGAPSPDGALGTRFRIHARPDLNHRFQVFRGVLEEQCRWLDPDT

[5] = target: T3, GPT2 (human) (UniProt Q8TD30)
T3 sequence: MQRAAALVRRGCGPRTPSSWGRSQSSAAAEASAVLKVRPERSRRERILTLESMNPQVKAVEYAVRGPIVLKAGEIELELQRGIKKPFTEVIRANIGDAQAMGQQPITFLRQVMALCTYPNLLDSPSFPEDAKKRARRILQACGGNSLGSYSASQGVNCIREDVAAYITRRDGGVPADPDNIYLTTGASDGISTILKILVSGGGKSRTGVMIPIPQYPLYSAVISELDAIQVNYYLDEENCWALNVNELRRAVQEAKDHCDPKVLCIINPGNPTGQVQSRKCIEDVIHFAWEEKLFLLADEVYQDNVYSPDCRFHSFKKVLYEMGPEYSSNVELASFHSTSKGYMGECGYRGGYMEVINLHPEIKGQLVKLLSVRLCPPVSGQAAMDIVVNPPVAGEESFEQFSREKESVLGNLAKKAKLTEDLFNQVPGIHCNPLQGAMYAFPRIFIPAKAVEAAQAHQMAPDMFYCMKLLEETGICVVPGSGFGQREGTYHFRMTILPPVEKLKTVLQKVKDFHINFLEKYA

[6] = target: T4, SGK494 (human) (UniProt Q96LW2)
T4 sequence: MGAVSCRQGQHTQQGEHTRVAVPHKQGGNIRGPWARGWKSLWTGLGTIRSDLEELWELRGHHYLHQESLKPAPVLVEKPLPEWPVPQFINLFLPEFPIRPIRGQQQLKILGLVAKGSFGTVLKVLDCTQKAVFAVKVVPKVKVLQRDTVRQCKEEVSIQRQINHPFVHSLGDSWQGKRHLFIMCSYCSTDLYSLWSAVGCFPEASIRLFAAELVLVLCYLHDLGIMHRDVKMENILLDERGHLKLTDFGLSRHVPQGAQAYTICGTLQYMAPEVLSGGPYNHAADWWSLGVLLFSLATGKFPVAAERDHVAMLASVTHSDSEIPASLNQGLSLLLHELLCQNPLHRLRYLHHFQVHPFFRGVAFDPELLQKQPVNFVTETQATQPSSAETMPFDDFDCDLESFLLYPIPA

[7] = target: T5, SLC25A16 (human) (UniProt P16260)
T5 sequence: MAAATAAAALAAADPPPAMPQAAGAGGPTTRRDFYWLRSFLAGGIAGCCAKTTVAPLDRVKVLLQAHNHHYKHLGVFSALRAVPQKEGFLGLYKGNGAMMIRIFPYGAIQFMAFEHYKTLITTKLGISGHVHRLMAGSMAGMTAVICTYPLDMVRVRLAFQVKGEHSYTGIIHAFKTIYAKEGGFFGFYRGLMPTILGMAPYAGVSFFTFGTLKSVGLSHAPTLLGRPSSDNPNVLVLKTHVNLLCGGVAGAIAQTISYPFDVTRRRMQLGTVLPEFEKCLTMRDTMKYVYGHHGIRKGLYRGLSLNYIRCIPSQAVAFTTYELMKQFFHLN

binding [1]: binds
binding [2]: binds
binding [3]: binds
binding [4]: binds
binding [6]: binds
binding [7]: binds
Substance: linear ubiquitin chain assembly complex (LUBAC), purified as HIS-tagged HOIP with the subunit HOIL-1, biotin-labelled (from UniProt Q96EP0 1-1072; Q9BYM8 1-510)
binding [5]: binds
